From patent US20190211057A1
Results are given in words; binding and its absence hold for the method and conditions named. Some results given as binding are weak or reduced against the parent protein; the word gives no strength.

Protein sequences, listed by entry. Tags and fused reporters are not part of them. Lines headed by an entry give the natural chain unless they say otherwise; changes in a name come on top.
UniProt P06756: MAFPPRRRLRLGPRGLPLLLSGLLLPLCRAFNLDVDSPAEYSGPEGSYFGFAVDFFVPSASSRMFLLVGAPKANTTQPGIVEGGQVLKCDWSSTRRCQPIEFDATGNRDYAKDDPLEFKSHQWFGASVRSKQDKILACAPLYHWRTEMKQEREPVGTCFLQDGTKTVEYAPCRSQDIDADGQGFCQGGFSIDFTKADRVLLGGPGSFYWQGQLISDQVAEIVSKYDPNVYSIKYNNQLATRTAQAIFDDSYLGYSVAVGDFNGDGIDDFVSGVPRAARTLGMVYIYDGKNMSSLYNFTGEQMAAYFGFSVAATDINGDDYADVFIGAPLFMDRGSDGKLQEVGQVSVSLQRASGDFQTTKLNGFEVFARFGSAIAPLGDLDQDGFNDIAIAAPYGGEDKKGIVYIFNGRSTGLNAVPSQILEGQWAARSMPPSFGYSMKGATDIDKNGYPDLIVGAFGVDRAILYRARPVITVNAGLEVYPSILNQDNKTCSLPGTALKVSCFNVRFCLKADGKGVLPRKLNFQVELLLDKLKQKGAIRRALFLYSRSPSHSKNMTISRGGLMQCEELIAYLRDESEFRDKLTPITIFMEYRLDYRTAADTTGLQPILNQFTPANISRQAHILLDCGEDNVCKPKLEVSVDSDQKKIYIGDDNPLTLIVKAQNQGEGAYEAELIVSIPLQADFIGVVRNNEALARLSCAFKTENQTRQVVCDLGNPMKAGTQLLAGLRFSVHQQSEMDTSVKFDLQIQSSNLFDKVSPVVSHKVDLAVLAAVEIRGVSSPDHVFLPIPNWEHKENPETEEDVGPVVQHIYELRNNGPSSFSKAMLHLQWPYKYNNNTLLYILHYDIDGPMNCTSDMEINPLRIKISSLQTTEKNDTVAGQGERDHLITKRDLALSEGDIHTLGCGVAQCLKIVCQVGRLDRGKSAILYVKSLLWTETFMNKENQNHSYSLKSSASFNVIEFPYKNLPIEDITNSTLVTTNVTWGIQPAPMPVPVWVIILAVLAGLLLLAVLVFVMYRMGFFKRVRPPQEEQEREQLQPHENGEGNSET

B1: RGD4C-yCD/UPRT (protein)
chain: MACDCRGDCFCVTGGMASKWDQKGMDIAYEEAALGYKEGGVPIGGCLINNKDGSVLGRGHNMRFQKGSATLHGEISTLENCGRLEGKVYKDTTLYTTLSPCDMCTGAIIMYGIPRCVVGENVNFKSKGEKYLQTRGHEVVVVDDERCKKIMKQFIDERPQDWFEDIGEASEPFKNVYLLPQTNQLLGLYTIIRNKNTTRPDFIFYSDRIIRLLVEEGLNHLPVQKQIVETDTNENFEGVSFMGKICGVSIVRAGESMEQGLRDCCRSVRIGKILIQRDEETALPKLFYEKLPEDISERYVFLLDPMLATGGSAIMATEVLIKRGVKPERIYFLNLICSKEGIEKYHAAFPEVRIVTGALDRGLDENKYLVPGLGDFGDRYYCVLEHHHHHH
B2: RGD4C-yCD (protein)
chain: MACDCRGDCFCVTGGMASKWDQKGMDIAYEEAALGYKEGGVPIGGCLINNKDGSVLGRGHNMRFQKGSATLHGEISTLENCGRLEGKVYKDTTLYTTLSPCDMCTGAIIMYGIPRCVVGENVNFKSKGEKYLQTRGHEVVVVDDERCKKIMKQFIDERPQDWFEDIGELEHHHHHH
B3: In-DTPA-RGD4C-yCD (protein)
chain: B2 chain
modifications: DTPA on primary amines, loaded with the stable isotope of indium
B4: DTPA-RGD4C-yCD (protein)
chain: B2 chain
modifications: DTPA on primary amines, 0.94 DTPA per protein on average

target: integrin αvβ3 receptor (UniProt P06756); assay: ELISA on integrin αvβ3 receptor

| binding | Binder |
| --- | --- |
| binds | B1 |
| binds | B2 |
| binds | B3 |
| binds | B4 |
